Results are given in words; binding and its absence hold for the method and conditions named. For some assays here: Binding seen in cells or lysates may run through a third protein. Some binding calls cover weakened binding; strength is not graded here.
Tests used:
[1] = target: polypyrimidine tract-binding protein (human (endogenous in MCF7 and HeLa)) (UniProt P26599); assay: co-IP; anti-PTB (BB7) on protein A/G beads, nuclear lysates of MCF7 cells, control or TRAIL-treated; western blot
recombinant PTB = recombinant PTB (UniProt P26599); assay: co-IP; purified recombinant proteins incubated with rePTB in an equal molar ratio; isolated on A/G sepharose beads bound to anti-PTB (BB7), extensive washing; western blot; both purified

Protein sequences, listed by entry. Tags and fused reporters are not part of them.
UniProt P26599: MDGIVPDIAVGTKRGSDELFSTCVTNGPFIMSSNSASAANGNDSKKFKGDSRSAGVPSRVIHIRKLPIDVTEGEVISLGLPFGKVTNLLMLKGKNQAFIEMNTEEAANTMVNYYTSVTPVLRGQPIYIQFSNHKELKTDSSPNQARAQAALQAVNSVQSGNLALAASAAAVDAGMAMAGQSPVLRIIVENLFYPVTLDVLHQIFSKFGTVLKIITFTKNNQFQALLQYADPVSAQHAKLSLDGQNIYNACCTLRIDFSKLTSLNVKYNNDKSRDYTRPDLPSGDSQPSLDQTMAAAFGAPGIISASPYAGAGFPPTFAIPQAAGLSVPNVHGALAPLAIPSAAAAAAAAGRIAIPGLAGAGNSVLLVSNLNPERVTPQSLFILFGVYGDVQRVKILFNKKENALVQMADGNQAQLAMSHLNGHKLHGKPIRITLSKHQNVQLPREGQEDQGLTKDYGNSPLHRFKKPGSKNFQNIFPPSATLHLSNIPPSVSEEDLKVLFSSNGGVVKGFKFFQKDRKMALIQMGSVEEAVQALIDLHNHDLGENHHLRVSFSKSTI

B1: NONO/p54nrb (protein, UniProt Q15233 1-471)
chain: MQSNKTFNLEKQNHTPRKHHQHHHQQQHHQQQQQQPPPPPIPANGQQASSQNEGLTIDLKNFRKPGEKTFTQRSRLFVGNLPPDITEEEMRKLFEKYGKAGEVFIHKDKGFGFIRLETRTLAEIAKVELDNMPLRGKQLRVRFACHSASLTVRNLPQYVSNELLEEAFSVFGQVERAVVIVDDRGRPSGKGIVEFSGKPAARKALDRCSEGSFLLTTFPRPVTVEPMDQLDDEEGLPEKLVIKNQQFHKEREQPPRFAQPGSFEYEYAMRWKALIEMEKQQQDQVDRNIKEAREKLEMEMEAARHEHQVMLMRQDLMRRQEELRRMEELHNQEVQKRKQLELRQEEERRRREEEMRRQQEEMMRRQQEGFKGTFPDAREQEIRMGQMAMGGAMGINNRGAMPPAPVPAGTPAPPGPATMMPDGTLGLTPPTTERFGQAATMEGIGAIGGTPPAFNRAAPGAEFAPNKRRRY
For B1, the binding [1] was “binds”.

B2: recombinant NONO/p54nrb (protein, UniProt Q15233 1-471)
chain: B1 chain
For B2, the binding (recombinant PTB) was “binds”.

— publication PMC3857619
